The text on the series:
The chloroform phase was isolated, transferred to a new vial and subsequently chloroform was dried under a gentle flow of nitrogen.

The structures appear in SMILES notation.

Turning to `CCC[C@@H]1C[C@@H](C(=O)N[C@@H]([C@H]2O[C@H](SC)[C@H](O)[C@@H](O)[C@H]2O)[C@H](C)Cl)N(C)C1` [clindamycin, Clindamycin monohydrate HCI, reference compound], the “solubility in ICell” value is “insoluble”.

For the origin of these results see patent publication EP4282435A1, “FORMULATIONS OF ACTIVE PHARMACEUTICAL INGREDIENTS AND EXCIPIENTS IN ICELLS VIA HYDROPHOBIC ION PAIRING” (Danmarks Tekniske Universitet, priority 2022, dated 2023).
